Test results: the supplement of paper PMC10849652
This is one part of the list. Residues, ends and D or L forms follow the SMILES beside them. *: point of attachment. Cbz = O=C(OCc1ccccc1)*

By UniProt entry, the sequences of proteins in these tests, tags left out. Where a name states a change or a piece, a line headed by the entry shows the natural chain unless it says otherwise.
UniProt Q9NYZ3: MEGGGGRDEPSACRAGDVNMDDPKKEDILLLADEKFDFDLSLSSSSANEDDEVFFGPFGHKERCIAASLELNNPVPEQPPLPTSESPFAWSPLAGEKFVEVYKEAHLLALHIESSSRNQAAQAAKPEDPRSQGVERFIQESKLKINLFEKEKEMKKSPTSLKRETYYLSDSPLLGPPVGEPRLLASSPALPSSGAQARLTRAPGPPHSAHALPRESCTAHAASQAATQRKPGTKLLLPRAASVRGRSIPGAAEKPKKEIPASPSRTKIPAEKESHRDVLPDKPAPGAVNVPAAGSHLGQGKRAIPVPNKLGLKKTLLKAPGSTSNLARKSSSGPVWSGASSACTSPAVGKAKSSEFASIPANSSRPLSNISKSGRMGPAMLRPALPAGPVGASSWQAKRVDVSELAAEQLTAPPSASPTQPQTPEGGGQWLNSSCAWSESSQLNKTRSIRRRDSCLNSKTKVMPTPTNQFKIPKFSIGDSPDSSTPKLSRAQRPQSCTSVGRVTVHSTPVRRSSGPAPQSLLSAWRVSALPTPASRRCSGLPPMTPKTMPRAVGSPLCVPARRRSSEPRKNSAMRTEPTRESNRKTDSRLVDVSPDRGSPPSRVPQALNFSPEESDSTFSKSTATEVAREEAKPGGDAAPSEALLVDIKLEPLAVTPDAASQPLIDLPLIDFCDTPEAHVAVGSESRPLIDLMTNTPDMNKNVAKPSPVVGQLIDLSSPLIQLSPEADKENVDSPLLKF
UniProt Q9Y2Q3: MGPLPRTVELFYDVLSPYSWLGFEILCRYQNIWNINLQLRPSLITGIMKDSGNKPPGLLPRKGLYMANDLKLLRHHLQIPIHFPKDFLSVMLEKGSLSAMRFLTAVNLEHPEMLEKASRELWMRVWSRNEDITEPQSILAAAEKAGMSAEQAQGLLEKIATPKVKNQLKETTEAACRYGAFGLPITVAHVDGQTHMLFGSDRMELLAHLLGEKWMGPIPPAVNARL
UniProt P02008: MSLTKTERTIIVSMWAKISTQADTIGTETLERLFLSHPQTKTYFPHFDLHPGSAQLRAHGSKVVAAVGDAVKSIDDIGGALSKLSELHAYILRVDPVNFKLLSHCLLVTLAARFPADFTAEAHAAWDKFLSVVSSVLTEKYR
UniProt Q7Z4H3: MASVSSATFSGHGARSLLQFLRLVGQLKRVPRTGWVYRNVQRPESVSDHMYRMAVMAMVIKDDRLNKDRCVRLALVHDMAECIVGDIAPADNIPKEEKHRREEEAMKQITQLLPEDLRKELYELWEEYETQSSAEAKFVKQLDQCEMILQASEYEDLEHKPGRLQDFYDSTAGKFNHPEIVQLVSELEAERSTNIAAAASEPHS
UniProt P69891: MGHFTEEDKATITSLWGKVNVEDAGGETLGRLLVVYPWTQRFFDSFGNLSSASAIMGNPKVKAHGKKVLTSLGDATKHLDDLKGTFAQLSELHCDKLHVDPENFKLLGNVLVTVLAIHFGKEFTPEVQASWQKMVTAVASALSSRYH
UniProt A4D1E9: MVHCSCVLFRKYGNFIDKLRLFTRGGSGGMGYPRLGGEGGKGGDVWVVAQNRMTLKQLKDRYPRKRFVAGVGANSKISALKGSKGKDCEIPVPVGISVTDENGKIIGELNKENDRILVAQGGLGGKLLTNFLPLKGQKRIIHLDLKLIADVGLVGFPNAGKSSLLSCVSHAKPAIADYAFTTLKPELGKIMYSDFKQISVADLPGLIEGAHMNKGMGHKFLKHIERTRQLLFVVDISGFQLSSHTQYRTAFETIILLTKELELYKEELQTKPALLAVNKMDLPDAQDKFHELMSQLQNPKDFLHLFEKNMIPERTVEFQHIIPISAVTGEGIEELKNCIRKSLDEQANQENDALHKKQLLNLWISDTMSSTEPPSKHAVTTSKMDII
UniProt Q9Y5Z4: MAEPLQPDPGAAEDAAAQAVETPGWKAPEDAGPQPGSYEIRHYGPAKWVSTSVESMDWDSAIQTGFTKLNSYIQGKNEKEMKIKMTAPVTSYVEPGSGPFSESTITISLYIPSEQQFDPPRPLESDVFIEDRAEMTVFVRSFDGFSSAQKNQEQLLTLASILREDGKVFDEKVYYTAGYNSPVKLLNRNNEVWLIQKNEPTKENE
UniProt P55084: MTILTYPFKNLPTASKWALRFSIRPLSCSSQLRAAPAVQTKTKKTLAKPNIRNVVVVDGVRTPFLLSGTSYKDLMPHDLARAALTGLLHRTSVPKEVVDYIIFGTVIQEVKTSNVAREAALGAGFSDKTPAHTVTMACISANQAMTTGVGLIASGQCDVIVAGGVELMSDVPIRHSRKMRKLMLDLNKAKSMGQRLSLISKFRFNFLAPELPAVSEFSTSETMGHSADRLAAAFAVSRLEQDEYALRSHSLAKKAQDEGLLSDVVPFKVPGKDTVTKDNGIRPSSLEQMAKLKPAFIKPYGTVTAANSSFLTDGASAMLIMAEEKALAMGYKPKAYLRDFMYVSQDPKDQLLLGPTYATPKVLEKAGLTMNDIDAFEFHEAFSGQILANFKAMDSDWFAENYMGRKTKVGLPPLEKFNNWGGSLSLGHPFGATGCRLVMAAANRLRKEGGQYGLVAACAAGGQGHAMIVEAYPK
UniProt Q5T447: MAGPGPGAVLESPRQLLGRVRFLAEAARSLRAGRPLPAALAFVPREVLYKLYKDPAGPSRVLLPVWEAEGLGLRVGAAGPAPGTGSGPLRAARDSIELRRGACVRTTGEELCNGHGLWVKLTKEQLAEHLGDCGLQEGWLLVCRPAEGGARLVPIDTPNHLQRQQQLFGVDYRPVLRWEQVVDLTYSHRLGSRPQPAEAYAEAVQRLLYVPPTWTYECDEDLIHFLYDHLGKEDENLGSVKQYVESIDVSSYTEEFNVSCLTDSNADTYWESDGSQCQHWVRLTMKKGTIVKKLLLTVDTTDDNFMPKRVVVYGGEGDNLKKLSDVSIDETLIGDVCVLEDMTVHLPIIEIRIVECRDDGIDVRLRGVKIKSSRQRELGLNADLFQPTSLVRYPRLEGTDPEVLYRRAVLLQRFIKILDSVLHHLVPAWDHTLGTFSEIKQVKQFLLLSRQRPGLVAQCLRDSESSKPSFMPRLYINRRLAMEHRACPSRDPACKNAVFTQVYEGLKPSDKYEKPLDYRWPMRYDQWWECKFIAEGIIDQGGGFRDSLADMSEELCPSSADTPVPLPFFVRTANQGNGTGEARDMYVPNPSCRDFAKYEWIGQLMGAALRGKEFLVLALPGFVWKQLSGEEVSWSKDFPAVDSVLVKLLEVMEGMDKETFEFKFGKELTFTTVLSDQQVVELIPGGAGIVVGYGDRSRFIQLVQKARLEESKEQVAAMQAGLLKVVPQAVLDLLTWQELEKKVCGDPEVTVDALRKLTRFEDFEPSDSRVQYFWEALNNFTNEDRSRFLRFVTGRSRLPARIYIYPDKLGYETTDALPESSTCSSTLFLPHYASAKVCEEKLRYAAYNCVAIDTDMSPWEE
UniProt P52655, whole entry, looked up: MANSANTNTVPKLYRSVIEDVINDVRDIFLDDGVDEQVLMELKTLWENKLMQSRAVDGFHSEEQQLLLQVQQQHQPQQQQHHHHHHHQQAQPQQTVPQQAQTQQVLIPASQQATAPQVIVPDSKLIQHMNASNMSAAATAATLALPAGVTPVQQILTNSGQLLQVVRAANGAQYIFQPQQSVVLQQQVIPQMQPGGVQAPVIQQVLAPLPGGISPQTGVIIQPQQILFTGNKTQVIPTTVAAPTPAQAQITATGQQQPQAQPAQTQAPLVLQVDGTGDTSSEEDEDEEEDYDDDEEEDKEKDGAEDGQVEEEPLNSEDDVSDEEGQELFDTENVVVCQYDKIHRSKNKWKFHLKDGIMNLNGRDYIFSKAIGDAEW
UniProt Q9Y5Q8: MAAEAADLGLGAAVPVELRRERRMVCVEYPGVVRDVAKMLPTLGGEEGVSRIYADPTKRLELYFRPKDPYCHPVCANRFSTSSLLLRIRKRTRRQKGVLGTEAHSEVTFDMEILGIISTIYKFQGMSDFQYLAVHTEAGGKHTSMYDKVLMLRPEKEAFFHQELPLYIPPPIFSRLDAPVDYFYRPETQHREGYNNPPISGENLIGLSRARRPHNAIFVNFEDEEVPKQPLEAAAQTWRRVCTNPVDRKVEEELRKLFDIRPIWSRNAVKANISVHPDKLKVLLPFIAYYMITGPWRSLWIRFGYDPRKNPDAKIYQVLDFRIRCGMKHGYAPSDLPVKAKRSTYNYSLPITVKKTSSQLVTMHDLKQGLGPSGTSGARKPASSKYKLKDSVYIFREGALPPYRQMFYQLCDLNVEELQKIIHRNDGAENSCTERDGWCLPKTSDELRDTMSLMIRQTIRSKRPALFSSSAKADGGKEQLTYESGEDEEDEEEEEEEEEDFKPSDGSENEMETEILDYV
UniProt P42694: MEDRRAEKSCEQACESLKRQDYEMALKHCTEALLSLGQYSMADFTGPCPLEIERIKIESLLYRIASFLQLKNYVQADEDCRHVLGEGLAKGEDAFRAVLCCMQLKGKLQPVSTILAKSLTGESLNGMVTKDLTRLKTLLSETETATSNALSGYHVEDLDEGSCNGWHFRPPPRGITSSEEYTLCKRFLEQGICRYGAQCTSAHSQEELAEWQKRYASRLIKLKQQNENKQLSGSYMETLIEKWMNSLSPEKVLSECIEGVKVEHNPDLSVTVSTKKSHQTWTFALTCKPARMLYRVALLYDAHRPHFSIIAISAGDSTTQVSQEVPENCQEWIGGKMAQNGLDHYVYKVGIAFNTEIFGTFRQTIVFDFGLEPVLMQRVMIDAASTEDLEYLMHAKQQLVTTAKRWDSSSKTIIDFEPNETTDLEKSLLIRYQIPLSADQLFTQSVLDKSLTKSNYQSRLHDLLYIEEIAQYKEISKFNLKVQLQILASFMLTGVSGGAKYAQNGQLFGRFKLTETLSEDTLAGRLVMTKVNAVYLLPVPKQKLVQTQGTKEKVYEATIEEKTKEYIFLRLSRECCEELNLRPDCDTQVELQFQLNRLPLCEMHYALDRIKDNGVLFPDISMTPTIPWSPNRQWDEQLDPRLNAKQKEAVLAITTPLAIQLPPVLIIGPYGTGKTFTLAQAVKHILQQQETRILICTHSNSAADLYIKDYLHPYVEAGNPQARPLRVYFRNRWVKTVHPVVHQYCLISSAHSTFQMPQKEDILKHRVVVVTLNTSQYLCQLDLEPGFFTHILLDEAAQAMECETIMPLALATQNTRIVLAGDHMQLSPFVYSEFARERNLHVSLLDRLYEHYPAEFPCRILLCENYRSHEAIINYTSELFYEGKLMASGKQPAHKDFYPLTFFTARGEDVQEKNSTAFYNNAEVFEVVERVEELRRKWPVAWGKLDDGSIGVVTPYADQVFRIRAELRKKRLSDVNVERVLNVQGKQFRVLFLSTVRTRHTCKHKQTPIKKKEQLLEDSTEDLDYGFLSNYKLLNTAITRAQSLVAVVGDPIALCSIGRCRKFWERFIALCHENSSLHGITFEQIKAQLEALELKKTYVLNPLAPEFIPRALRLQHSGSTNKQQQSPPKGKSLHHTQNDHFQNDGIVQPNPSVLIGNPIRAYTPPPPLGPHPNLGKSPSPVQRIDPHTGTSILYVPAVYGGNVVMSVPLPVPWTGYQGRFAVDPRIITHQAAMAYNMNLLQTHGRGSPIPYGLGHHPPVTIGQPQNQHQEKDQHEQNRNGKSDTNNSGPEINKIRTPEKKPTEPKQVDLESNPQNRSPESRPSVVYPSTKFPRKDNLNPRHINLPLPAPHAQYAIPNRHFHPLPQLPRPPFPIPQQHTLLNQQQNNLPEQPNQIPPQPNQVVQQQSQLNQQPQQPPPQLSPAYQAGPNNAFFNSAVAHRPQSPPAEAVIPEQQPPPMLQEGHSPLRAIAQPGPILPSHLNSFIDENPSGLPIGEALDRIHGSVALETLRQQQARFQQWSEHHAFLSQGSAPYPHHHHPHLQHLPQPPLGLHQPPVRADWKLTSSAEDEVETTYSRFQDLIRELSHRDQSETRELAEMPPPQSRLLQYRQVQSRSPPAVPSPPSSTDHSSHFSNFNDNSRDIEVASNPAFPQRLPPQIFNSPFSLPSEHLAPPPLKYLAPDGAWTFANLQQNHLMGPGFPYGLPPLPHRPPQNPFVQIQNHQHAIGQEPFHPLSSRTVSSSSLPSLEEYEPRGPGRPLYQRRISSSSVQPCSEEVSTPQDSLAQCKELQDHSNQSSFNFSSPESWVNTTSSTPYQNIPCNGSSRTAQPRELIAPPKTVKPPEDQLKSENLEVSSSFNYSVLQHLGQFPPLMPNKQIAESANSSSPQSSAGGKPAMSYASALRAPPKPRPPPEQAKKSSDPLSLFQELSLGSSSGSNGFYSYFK
UniProt Q00403, whole entry, looked up: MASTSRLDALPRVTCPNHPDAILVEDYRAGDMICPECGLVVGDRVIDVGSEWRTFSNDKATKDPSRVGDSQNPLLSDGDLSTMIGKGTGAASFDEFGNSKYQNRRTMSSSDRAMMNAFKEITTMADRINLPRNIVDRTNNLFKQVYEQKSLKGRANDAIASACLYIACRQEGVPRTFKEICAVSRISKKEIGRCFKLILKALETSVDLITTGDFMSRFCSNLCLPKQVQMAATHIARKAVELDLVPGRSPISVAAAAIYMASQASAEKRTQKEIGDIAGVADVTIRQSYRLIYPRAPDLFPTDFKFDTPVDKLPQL

Experiments:
Assay in all cases: log2 fold change, soluble protein after heating vs DMSO (PISA); higher = thermal stabilisation; K562 cells, 10 uM, 30 min; active = over 0.2 and 3.5 SD of the protein, either way, in both replicates (recomputed)
IRAK-1-4 Inhibitor I = compound: C1COCCN1CCN2C3=CC=CC=C3N=C2NC(=O)C4=CC(=CC=C4)[N+](=O)[O-] [IRAK-1-4 Inhibitor I]
In short: (§1)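 Soluble protein was defined as the supernatant after 21,000xg for 90 min. It came from K562 cells at 2×10^6 cells/mL given 10 μM compound for 30 min, heated in aliquots for 3 min across 48°C-58°C, pooled, and extracted in PBS with 0.5% NP-40 at 4°C, and was quantified by TMTpro 16plex LC-MS/MS with equalised channel sums. Thermal stability against control samples, from duplicates, is reported as log2 fold change.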

ibrutinib = compound: C=CC(=O)N1CCC[C@@H](n2nc(-c3ccc(Oc4ccccc4)cc3)c3c(N)ncnc32)C1 [ibrutinib]
In short: as §1

[1] = compound: CC(=O)c1cnc2ccc(-c3cc(Cl)c(O)c(Cl)c3)nc2c1N[C@H]1CC[C@H](CN(C)C)CC1
In short: as §1

ralimetinib = compound: CC(C)(C)Cn1c(N)nc2ccc(-c3[nH]c(C(C)(C)C)nc3-c3ccc(F)cc3)nc21 [ralimetinib]
In short: as §1

[2] = compound: CC(C)(O)CC(=O)NCCn1ccc2ncnc(Nc3ccc(Oc4cccc(C(F)(F)F)c4)c(Cl)c3)c21
In short: as §1

[3] = compound: CC(C)C1=C2N=C(C=C(N2N=C1)NCC3=CC=CC=C3)NCCCCCCN
In short: as §1

[4] = compound: CC(C)C[C@@H](C=O)NC(=O)[C@H](CC(C)C)NC(=O)[C@H](CC(C)C)NC(=O)OCc1ccccc1
In short: as §1

pinometostat = compound: CC(C)N(C[C@H]1O[C@@H](n2cnc3c(N)ncnc32)[C@H](O)[C@@H]1O)[C@H]1C[C@@H](CCc2nc3cc(C(C)(C)C)ccc3[nH]2)C1 [pinometostat]
In short: as §1

[5] = compound: CC1=C(C(CC(=O)N1)C2=CC=C(C=C2)C(F)(F)F)C(=O)NC3=C(C=C4C(=C3)C=NN4)F
In short: as §1

[6] = compound: CC1=C(C2=C(C=C1)C(=O)C3=CC=CC=C3N2CCCN)C
In short: as §1

Measured: log2 fold change

GTSE1 (UniProt Q9NYZ3)
inactive: IRAK-1-4 Inhibitor I -0.173 | ibrutinib -0.074 | [1] 0.016 | ralimetinib -0.007 | [2] -0.01 | [3] -0.002 | [4] 0.047 | pinometostat 0.009 | [5] 0.034 | [6] -0.009

GSTK1 (UniProt Q9Y2Q3)
inactive: IRAK-1-4 Inhibitor I -0.006 | ibrutinib -0.025 | [1] -0.073 | ralimetinib -0.035 | [2] -0.045 | [3] 0.061 | [4] 0 | pinometostat -0.053 | [5] -0.014 | [6] 0.106

H4C1 (UniProt P62805)
inactive: IRAK-1-4 Inhibitor I -0.184 | ibrutinib 0.132 | [1] -0.023 | ralimetinib 0.243 | [2] 0.046 | [3] -0.024 | [4] 0.251 | pinometostat 0.411 | [5] -0.051 | [6] 0.747

HERC1 (UniProt Q15751)
inactive: IRAK-1-4 Inhibitor I -0.004 | ibrutinib -0.033 | [1] 0.065 | ralimetinib 0.052 | [2] -0.001 | [3] -0.061 | [4] -0.051 | pinometostat 0.037 | [5] -0.009 | [6] 0.01

HBZ (UniProt P02008)
inactive: IRAK-1-4 Inhibitor I 0.025 | ibrutinib -0.001 | [1] -0.005 | ralimetinib -0.052 | [2] -0.042 | [3] 0.102 | [4] -0.019 | pinometostat -0.017 | [6] 0.088

HDDC2 (UniProt Q7Z4H3)
inactive: IRAK-1-4 Inhibitor I 0.04 | ibrutinib 0 | [1] 0.052 | ralimetinib 0.085 | [2] 0.003 | [3] 0.074 | [4] 0 | pinometostat -0.076 | [6] -0.007

GTF3C4 (UniProt Q9UKN8)
inactive: IRAK-1-4 Inhibitor I -0.002 | ibrutinib 0.032 | [1] -0.051 | ralimetinib -0.045 | [2] 0.035 | [3] 0.038 | [4] 0.035 | pinometostat 0 | [6] -0.041

HBG1 (UniProt P69891)
inactive: IRAK-1-4 Inhibitor I 0.004 | ibrutinib 0.025 | [1] -0.023 | ralimetinib -0.024 | [2] -0.025 | [3] 0.119 | [4] -0.051 | pinometostat -0.088 | [5] 0.019 | [6] 0.16

GTPBP10 (UniProt A4D1E9)
inactive: IRAK-1-4 Inhibitor I -0.127 | ibrutinib -0.136 | [1] -0.189 | ralimetinib 0.053 | [2] -0.018 | [3] 0.002 | [4] 0.122 | pinometostat 0.111 | [5] 0.169 | [6] 0.16

HEBP2 (UniProt Q9Y5Z4)
inactive: IRAK-1-4 Inhibitor I 0.055 | ibrutinib -0.046 | [1] 0.008 | ralimetinib -0.094 | [2] 0.016 | [3] 0.048 | [4] -0.022 | pinometostat -0.042 | [5] -0.003 | [6] 0

HEATR5A (UniProt Q86XA9)
inactive: IRAK-1-4 Inhibitor I 0.03 | ibrutinib 0.005 | [1] -0.053 | ralimetinib -0.01 | [2] -0.117 | [3] -0.181 | [4] 0.011 | pinometostat 0.1 | [5] 0.005 | [6] 0.002

HBD (UniProt P02042)
inactive: IRAK-1-4 Inhibitor I -0.019 | ibrutinib 0.121 | [1] 0 | ralimetinib -0.062 | [2] -0.009 | [3] 0.07 | [4] -0.07 | pinometostat -0.062 | [5] 0.025 | [6] 0.088

GTPBP6 (UniProt O43824)
inactive: IRAK-1-4 Inhibitor I -0.043 | ibrutinib -0.081 | [1] 0.028 | ralimetinib 0.039 | [2] 0.111 | [3] 0.204 | [4] 0.024 | pinometostat 0.062 | [6] 0.013

HADHB (UniProt P55084)
inactive: IRAK-1-4 Inhibitor I -0.025 | ibrutinib 0.074 | [1] -0.326 | ralimetinib 0.068 | [2] -0.155 | [3] 0.37 | [4] -0.106 | pinometostat -0.05 | [6] 0.104

HEPH isoform 3 (UniProt Q9BQS7)
inactive: IRAK-1-4 Inhibitor I -0.002 | ibrutinib 0.04 | [1] -0.044 | ralimetinib -0.003 | [2] 0.029 | [3] -0.055 | [4] 0.091 | pinometostat 0.013 | [5] 0.005 | [6] -0.069

HDGF (UniProt P51858)
inactive: IRAK-1-4 Inhibitor I 0.021 | ibrutinib -0.001 | [1] 0.013 | ralimetinib 0.015 | [2] 0.003 | [3] -0.023 | [4] -0.002 | pinometostat -0.047 | [5] 0.026 | [6] -0.103

HECTD3 (UniProt Q5T447)
inactive: IRAK-1-4 Inhibitor I -0.066 | ibrutinib 0.031 | [1] 0.035 | ralimetinib 0.079 | [2] -0.097 | [3] -0.105 | [4] 0.022 | pinometostat 0.073 | [5] 0.02 | [6] -0.06

GTF2H3 (UniProt Q13889)
inactive: IRAK-1-4 Inhibitor I -0.06 | ibrutinib 0.056 | [1] 0.063 | ralimetinib 0.049 | [2] 0.006 | [3] 0.011 | [4] 0 | pinometostat 0.06 | [6] 0.02

GSPT1 isoform 3 (UniProt P15170)
inactive: IRAK-1-4 Inhibitor I 0.058 | ibrutinib -0.01 | [1] 0 | ralimetinib -0.033 | [2] -0.029 | [3] 0.015 | [4] -0.01 | pinometostat 0.005 | [5] -0.028 | [6] 0.12

HARS (UniProt P12081)
inactive: IRAK-1-4 Inhibitor I 0.032 | ibrutinib 0.012 | [1] 0.006 | ralimetinib -0.054 | [2] 0.019 | [3] 0.035 | [4] -0.034 | pinometostat -0.033 | [5] 0.009 | [6] -0.006

GTF2A1 (UniProt P52655)
inactive: IRAK-1-4 Inhibitor I 0.068 | ibrutinib 0.03 | [1] 0.013 | ralimetinib -0.142 | [2] -0.106 | [3] 0.022 | [4] -0.06 | pinometostat 0.035
active: [6] -0.415

H2AZ1 (UniProt P0C0S5)
active: [6] 1.74
inactive: IRAK-1-4 Inhibitor I -0.115 | ibrutinib 0.087 | [1] -0.125 | ralimetinib 0.247 | [2] 0.031 | [3] -0.022 | [4] 0.244 | pinometostat 0.268

GSTM4 (UniProt Q03013)
inactive: IRAK-1-4 Inhibitor I 0.091 | ibrutinib -0.028 | [1] -0.083 | ralimetinib -0.035 | [2] -0.103 | [3] 0.029 | [4] -0.008 | pinometostat -0.05 | [6] 0.115

HBA1 (UniProt P69905)
inactive: IRAK-1-4 Inhibitor I 0.002 | ibrutinib 0.007 | [1] -0.03 | ralimetinib -0.037 | [2] -0.035 | [3] 0.094 | [4] -0.056 | pinometostat 0.025 | [6] 0.127

GTF3C5 isoform 3 (UniProt Q9Y5Q8)
inactive: IRAK-1-4 Inhibitor I -0.028 | ibrutinib 0.046 | [1] 0.047 | ralimetinib 0.01 | [2] -0.025 | [3] -0.293 | [4] 0.083 | pinometostat 0.109 | [6] -0.171

HAT1 (UniProt O14929)
inactive: IRAK-1-4 Inhibitor I 0.027 | ibrutinib -0.009 | [1] -0.109 | ralimetinib -0.003 | [2] -0.027 | [3] 0.006 | [4] -0.022 | pinometostat -0.048 | [6] -0.03

HELZ (UniProt P42694)
inactive: IRAK-1-4 Inhibitor I 0.035 | ibrutinib 0.018 | [1] -0.285 | ralimetinib 0.004 | [3] 0.004 | [4] 0.049 | pinometostat -0.181 | [5] 0.035

H3-2 (UniProt Q5TEC6)
inactive: IRAK-1-4 Inhibitor I -0.176 | ibrutinib 0.115 | ralimetinib 0.14 | [3] 0.006 | [4] 0.167 | pinometostat 0.49 | [5] 0.062

HERC2 (UniProt O95714)
inactive: IRAK-1-4 Inhibitor I -0.056 | ibrutinib 0.187 | [1] -0.076 | ralimetinib 0.055 | [2] -0.024 | [4] 0.112 | pinometostat 0.236 | [5] 0.057 | [6] -0.163

HADHA (UniProt P40939)
inactive: IRAK-1-4 Inhibitor I -0.001 | ibrutinib 0.175 | [1] -0.358 | ralimetinib 0.058 | [2] -0.132 | [3] 0.43 | [4] -0.116 | pinometostat -0.064 | [6] 0.054

GYG1 (UniProt P46976)
inactive: IRAK-1-4 Inhibitor I -0.055 | ibrutinib 0.025 | [1] -0.29 | ralimetinib 0.176 | [2] 0.029 | [3] -0.114 | [4] 0.064 | pinometostat 0.125 | [6] 0.035

Ten neighbouring records already listed, for reference:
HARS (UniProt P12081)
inactive: IRAK-1-4 Inhibitor I 0.032 | ibrutinib 0.012 | [1] 0.006 | ralimetinib -0.054 | [2] 0.019 | [3] 0.035 | [4] -0.034 | pinometostat -0.033 | [5] 0.009 | [6] -0.006

GTF2A1 (UniProt P52655)
inactive: IRAK-1-4 Inhibitor I 0.068 | ibrutinib 0.03 | [1] 0.013 | ralimetinib -0.142 | [2] -0.106 | [3] 0.022 | [4] -0.06 | pinometostat 0.035
active: [6] -0.415

H2AZ1 (UniProt P0C0S5)
active: [6] 1.74
inactive: IRAK-1-4 Inhibitor I -0.115 | ibrutinib 0.087 | [1] -0.125 | ralimetinib 0.247 | [2] 0.031 | [3] -0.022 | [4] 0.244 | pinometostat 0.268

GSTM4 (UniProt Q03013)
inactive: IRAK-1-4 Inhibitor I 0.091 | ibrutinib -0.028 | [1] -0.083 | ralimetinib -0.035 | [2] -0.103 | [3] 0.029 | [4] -0.008 | pinometostat -0.05 | [6] 0.115

HBA1 (UniProt P69905)
inactive: IRAK-1-4 Inhibitor I 0.002 | ibrutinib 0.007 | [1] -0.03 | ralimetinib -0.037 | [2] -0.035 | [3] 0.094 | [4] -0.056 | pinometostat 0.025 | [6] 0.127

GTF3C5 isoform 3 (UniProt Q9Y5Q8)
inactive: IRAK-1-4 Inhibitor I -0.028 | ibrutinib 0.046 | [1] 0.047 | ralimetinib 0.01 | [2] -0.025 | [3] -0.293 | [4] 0.083 | pinometostat 0.109 | [6] -0.171

HAT1 (UniProt O14929)
inactive: IRAK-1-4 Inhibitor I 0.027 | ibrutinib -0.009 | [1] -0.109 | ralimetinib -0.003 | [2] -0.027 | [3] 0.006 | [4] -0.022 | pinometostat -0.048 | [6] -0.03

HELZ (UniProt P42694)
inactive: IRAK-1-4 Inhibitor I 0.035 | ibrutinib 0.018 | [1] -0.285 | ralimetinib 0.004 | [3] 0.004 | [4] 0.049 | pinometostat -0.181 | [5] 0.035

H3-2 (UniProt Q5TEC6)
inactive: IRAK-1-4 Inhibitor I -0.176 | ibrutinib 0.115 | ralimetinib 0.14 | [3] 0.006 | [4] 0.167 | pinometostat 0.49 | [5] 0.062

HERC2 (UniProt O95714)
inactive: IRAK-1-4 Inhibitor I -0.056 | ibrutinib 0.187 | [1] -0.076 | ralimetinib 0.055 | [2] -0.024 | [4] 0.112 | pinometostat 0.236 | [5] 0.057 | [6] -0.163

Continuation:

GTF2B (UniProt Q00403)
inactive: IRAK-1-4 Inhibitor I -0.063 | ibrutinib -0.064 | [1] -0.023 | ralimetinib 0.044 | [2] -0.215 | [3] -0.125 | [4] 0.068 | pinometostat 0 | [6] 0.07
